Measured values taken from the supplement of paper PMC10849652.
Some of the results follow.

Amino acid sequences for entries named in this document (tags omitted). A change or cut given only in a name is not applied to a line headed by its entry.
UniProt P62633: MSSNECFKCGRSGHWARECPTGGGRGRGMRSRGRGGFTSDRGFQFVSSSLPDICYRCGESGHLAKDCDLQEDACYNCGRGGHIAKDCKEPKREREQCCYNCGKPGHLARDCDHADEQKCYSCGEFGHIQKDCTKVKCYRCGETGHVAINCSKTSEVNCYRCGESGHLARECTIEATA
UniProt P0CG13, whole entry, looked up: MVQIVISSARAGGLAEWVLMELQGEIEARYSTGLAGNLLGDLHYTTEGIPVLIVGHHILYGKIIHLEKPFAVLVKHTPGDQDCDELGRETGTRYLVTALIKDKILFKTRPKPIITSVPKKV
UniProt Q92989: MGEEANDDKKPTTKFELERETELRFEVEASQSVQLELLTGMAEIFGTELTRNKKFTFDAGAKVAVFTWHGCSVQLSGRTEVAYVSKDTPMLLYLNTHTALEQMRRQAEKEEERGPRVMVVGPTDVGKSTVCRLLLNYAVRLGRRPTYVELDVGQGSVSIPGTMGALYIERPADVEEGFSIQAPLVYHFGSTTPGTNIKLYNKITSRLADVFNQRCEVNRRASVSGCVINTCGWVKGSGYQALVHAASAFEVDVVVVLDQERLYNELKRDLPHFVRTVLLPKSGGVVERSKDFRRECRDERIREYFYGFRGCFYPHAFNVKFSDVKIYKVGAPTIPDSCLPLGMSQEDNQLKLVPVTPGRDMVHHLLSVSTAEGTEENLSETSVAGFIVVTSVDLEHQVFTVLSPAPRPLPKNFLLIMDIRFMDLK
UniProt Q7Z7K0: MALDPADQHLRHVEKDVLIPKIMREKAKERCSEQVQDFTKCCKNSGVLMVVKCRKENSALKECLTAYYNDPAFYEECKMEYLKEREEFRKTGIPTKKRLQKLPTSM
UniProt O75153: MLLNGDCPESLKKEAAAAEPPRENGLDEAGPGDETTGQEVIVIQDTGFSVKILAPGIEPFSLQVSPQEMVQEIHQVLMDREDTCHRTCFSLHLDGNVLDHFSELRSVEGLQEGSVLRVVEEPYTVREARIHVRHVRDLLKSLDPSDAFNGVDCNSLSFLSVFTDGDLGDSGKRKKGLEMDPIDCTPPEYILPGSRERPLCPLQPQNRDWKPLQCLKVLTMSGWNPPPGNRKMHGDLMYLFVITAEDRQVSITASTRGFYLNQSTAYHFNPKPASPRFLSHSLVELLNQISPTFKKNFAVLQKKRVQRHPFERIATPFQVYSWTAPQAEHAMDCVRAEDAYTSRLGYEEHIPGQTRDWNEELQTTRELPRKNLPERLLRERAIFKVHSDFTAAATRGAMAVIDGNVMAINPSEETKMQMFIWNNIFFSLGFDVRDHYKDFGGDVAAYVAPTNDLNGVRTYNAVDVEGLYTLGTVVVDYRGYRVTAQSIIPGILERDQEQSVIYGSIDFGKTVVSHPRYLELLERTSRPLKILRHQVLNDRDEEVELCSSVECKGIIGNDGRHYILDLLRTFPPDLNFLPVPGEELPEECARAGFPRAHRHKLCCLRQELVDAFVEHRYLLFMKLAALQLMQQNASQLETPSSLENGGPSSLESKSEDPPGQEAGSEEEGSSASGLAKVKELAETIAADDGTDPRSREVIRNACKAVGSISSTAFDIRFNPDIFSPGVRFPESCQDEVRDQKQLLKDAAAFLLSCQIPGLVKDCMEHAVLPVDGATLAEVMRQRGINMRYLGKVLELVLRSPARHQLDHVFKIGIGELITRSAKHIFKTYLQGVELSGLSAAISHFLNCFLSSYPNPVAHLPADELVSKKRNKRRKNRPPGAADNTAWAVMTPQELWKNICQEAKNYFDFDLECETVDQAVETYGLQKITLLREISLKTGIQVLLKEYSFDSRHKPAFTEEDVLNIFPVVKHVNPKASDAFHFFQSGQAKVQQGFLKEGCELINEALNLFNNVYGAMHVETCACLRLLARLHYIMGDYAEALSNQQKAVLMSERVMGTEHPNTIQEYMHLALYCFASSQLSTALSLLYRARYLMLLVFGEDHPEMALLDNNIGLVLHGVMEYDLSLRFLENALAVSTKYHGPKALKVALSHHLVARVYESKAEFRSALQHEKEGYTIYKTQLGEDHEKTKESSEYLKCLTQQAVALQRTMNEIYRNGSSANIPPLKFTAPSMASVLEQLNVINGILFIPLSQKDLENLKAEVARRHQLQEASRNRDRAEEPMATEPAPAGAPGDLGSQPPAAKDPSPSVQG
UniProt Q9BY43: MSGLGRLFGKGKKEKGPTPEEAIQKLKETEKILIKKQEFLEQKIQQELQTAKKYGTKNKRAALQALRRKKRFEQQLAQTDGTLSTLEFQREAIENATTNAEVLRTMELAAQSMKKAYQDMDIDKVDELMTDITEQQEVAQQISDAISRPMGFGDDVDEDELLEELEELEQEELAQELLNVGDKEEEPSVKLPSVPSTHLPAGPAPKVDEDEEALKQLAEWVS
UniProt Q9NRG0: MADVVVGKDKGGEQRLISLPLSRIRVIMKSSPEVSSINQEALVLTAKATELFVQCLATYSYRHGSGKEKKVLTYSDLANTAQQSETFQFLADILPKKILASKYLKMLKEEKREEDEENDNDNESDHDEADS
UniProt P56749: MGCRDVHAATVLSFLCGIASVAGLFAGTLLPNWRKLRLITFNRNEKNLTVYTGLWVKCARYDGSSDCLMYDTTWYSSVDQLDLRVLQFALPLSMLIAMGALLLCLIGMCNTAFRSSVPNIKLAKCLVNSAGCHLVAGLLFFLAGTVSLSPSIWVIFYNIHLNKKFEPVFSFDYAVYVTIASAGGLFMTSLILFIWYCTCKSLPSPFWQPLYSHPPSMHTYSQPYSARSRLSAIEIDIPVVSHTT
UniProt Q8WVB6, whole entry, looked up: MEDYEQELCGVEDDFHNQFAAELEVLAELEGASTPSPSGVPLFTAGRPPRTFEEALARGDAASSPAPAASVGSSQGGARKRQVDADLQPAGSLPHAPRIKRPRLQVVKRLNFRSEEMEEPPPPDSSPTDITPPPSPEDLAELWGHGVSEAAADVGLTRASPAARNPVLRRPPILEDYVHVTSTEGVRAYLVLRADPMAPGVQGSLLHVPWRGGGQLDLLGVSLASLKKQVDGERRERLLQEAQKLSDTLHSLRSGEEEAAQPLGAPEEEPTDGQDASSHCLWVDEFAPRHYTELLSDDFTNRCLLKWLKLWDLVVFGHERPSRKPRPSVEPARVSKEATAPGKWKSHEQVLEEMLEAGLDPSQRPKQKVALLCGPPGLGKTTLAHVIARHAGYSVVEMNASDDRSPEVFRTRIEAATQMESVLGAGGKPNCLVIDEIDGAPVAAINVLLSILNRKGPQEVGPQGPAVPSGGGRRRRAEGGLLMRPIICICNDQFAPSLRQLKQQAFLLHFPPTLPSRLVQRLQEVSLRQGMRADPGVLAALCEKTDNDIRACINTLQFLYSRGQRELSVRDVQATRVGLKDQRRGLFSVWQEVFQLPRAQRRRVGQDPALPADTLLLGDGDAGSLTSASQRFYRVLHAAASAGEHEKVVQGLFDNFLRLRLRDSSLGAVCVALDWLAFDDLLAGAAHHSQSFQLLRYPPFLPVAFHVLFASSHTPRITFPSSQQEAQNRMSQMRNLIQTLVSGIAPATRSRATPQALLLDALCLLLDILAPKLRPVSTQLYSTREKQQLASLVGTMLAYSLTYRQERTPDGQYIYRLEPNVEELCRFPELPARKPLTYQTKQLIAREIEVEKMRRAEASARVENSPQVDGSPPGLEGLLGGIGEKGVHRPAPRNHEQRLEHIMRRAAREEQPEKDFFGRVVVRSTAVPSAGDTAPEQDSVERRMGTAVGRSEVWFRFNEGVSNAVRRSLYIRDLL
UniProt Q9H078: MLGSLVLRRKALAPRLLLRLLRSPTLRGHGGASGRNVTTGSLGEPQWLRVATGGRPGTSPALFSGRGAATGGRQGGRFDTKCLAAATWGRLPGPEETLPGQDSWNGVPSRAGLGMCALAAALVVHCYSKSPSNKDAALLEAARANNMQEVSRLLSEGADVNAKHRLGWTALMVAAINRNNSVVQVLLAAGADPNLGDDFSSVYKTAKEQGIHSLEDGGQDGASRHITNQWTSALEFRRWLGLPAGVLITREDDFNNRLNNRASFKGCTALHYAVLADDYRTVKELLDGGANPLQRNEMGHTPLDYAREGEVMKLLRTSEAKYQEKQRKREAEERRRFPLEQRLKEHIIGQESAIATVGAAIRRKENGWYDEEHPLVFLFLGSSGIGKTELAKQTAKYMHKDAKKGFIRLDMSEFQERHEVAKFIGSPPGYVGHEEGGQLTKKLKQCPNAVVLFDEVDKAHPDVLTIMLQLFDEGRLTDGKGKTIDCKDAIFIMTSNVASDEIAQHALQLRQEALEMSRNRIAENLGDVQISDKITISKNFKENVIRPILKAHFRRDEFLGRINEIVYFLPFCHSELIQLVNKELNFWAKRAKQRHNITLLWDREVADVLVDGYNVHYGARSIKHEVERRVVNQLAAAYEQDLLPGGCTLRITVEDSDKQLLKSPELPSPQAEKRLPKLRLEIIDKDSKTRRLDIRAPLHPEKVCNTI
UniProt O14967: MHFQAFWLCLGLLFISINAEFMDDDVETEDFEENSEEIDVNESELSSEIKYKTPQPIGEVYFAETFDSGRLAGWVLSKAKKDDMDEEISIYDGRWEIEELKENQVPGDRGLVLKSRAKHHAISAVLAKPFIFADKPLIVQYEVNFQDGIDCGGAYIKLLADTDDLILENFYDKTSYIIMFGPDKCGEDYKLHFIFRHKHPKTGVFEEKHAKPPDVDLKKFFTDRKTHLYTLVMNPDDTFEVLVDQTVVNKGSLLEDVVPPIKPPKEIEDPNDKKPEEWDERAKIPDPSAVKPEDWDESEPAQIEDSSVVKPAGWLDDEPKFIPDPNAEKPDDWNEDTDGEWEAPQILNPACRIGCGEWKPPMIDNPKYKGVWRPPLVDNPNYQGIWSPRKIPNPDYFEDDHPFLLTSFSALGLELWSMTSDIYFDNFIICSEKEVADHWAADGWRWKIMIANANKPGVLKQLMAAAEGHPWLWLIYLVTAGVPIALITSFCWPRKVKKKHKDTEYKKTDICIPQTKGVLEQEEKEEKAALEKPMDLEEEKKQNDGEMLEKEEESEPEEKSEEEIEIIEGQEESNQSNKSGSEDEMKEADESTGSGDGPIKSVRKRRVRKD
UniProt P51790: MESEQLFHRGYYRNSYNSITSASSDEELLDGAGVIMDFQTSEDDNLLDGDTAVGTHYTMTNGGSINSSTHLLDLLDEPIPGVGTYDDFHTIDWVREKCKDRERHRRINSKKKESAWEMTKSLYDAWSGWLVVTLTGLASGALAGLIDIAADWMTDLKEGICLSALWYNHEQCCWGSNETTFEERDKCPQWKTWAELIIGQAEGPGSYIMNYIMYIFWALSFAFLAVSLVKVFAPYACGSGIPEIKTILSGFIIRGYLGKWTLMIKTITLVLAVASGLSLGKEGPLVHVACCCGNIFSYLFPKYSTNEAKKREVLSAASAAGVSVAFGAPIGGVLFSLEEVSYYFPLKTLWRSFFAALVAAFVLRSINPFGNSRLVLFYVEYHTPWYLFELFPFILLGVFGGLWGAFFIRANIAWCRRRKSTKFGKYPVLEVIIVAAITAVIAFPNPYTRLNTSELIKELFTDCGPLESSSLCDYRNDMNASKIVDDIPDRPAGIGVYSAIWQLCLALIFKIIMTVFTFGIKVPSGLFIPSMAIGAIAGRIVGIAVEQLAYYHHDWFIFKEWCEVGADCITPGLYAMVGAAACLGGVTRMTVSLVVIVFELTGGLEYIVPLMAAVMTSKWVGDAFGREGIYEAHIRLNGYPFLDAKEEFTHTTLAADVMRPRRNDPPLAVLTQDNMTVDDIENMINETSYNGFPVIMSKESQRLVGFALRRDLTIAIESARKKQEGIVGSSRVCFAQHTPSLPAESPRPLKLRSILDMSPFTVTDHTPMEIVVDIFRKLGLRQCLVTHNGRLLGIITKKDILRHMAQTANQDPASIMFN
UniProt Q96AJ1: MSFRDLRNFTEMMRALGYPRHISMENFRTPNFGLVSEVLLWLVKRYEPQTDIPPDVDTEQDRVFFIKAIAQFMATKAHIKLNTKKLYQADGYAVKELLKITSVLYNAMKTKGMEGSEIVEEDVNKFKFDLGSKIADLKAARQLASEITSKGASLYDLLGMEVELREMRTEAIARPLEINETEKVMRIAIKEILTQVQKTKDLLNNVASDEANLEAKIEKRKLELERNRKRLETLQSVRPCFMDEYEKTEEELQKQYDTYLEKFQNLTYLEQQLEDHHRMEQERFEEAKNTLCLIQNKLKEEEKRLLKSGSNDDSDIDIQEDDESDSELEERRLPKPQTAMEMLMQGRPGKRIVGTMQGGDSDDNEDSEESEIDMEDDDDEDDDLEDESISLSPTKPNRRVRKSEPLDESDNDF
UniProt Q9Y696: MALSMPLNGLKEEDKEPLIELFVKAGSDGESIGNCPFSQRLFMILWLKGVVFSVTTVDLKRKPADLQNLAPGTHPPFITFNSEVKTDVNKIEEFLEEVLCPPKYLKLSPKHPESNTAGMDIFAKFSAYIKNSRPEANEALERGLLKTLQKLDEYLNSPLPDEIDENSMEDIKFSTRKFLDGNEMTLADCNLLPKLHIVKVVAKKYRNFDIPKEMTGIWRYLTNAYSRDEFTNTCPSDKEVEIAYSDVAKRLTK

Assays:
Test in all cases: log2 fold change, soluble protein after heating vs DMSO (PISA); higher = thermal stabilisation; K562 lysate, 10 uM; active = over 0.2 and 3.5 SD of the protein, either way, in both replicates (recomputed)
[1] = compound: CS(=O)(=O)CCNCc1ccc(-c2ccc3ncnc(Nc4ccc(OCc5cccc(F)c5)c(Cl)c4)c3c2)o1 [lapatinib]
Outline: (§1)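 Pellets of K562 cells were dounce-homogenised in PBS pH 7.4 with 1 mM MgCl2, and the crude extract was held at 1 mg/mL protein for a 30 min treatment with 10 μM compound. Aliquots were heated for 3 min over 48°C-58°C and pooled before NP-40 was added to 0.5% at 4°C. The supernatant from 21,000xg for 90 min was quantified by TMTpro 16plex LC-MS/MS with channel sums equalised. Values are reported from duplicates as log-two fold change in thermal stability relative to solvent controls.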

[2] = compound: C[C@@H](Oc1cc(-c2cnn(C3CCNCC3)c2)cnc1N)c1c(Cl)ccc(F)c1Cl [crizotinib]
Outline: as §1

[3] = compound: C[C@H](C1=CC=C(C=C1)C(=O)NC2=C3C=CNC3=NC=C2)N
Outline: as §1

[4] = compound: C[C@H](Nc1ncnc2nc[nH]c12)c1cc2cccc(Cl)c2c(=O)n1-c1ccccc1 [duvelisib]
Outline: as §1

[5] = compound: Cc1cc(Nc2cc(CN3CCOCC3)c3nc(C)c(Cc4ccc(Cl)cc4F)n3n2)n[nH]1 [gandotinib]
Outline: as §1

[6] = compound: Cc1cc(Nc2cc(N3CCN(C)CC3)nc(Sc3ccc(NC(=O)C4CC4)cc3)n2)n[nH]1 [tozasertib]
Outline: as §1

[7] = compound: Cc1ccc(-n2nc(C(C)(C)C)cc2NC(=O)Nc2ccc(OCCN3CCOCC3)c3ccccc23)cc1 [doramapimod]
Outline: as §1

[8] = compound: Cc1ccc(NC(=O)c2ccc(CN3CC[C@H](N(C)C)C3)c(C(F)(F)F)c2)cc1Nc1nccc(-c2cncnc2)n1 [bafetinib]
Outline: as §1

[9] = compound: Cc1cccc(CC(=O)N2CCc3c2ccc(-c2cn(C)c4ncnc(N)c24)c3F)n1
Outline: as §1

[10] = compound: CS(=O)(=O)N1CCN(Cc2cc3nc(-c4cccc5[nH]ncc45)nc(N4CCOCC4)c3s2)CC1 [pictilisib]
Outline: as §1

| Target | log2 fold change [1] | log2 fold change [2] | log2 fold change [3] | log2 fold change [4] | log2 fold change [5] | log2 fold change [6] | log2 fold change [7] | log2 fold change [8] | log2 fold change [9] | log2 fold change [10] |
| --- | --- | --- | --- | --- | --- | --- | --- | --- | --- | --- |
| CLASRP (UniProt Q8N2M8) | inactive: 0.011 | inactive: -0.03 | inactive: -0.036 | inactive: 0.028 | inactive: 0.044 | inactive: -0.031 | inactive: 0.023 | inactive: -0.119 | inactive: -0.045 |  |
| CNBP isoform 4 (UniProt P62633) | inactive: 0.058 | inactive: 0.002 | inactive: -0.022 | inactive: -0.017 | inactive: 0.022 | inactive: 0.033 | inactive: 0.205 | inactive: 0.073 | inactive: -0.032 | inactive: 0.02 |
| CIAPIN1 (UniProt Q6FI81) | inactive: -0.012 | inactive: 0.025 | inactive: -0.032 | inactive: 0.009 | inactive: 0.032 | inactive: -0.01 | inactive: -0.008 | inactive: 0.001 | inactive: 0.004 | inactive: -0.007 |
| CLUH, A0A494C0R8 | inactive: -0.052 | inactive: -0.019 | active: 0.557 | inactive: 0.154 | inactive: -0.108 | inactive: -0.025 | inactive: -0.026 | inactive: -0.091 | inactive: -0.14 |  |
| CHTF8 (UniProt P0CG13) | inactive: 0.073 | inactive: -0.054 | inactive: 0.059 | inactive: -0.065 | inactive: 0.007 | inactive: -0.107 | inactive: -0.032 | inactive: 0.022 | inactive: -0.001 | inactive: 0.069 |
| CLYBL (UniProt Q8N0X4) | inactive: 0.07 | inactive: 0.199 | inactive: 0.01 | inactive: 0.084 | inactive: 0.001 | inactive: -0.164 | inactive: -0.027 | inactive: 0.067 | inactive: 0.101 |  |
| CLP1 (UniProt Q92989) | inactive: -0.003 | inactive: -0.041 | inactive: -0.12 | inactive: -0.056 | inactive: 0.008 | inactive: 0.004 | inactive: 0.032 | inactive: 0.01 | inactive: 0.047 |  |
| CMC1 (UniProt Q7Z7K0) | inactive: -0.007 | inactive: 0.029 | inactive: 0.001 | inactive: 0.098 | inactive: -0.017 | inactive: 0.066 | inactive: 0.038 | inactive: 0.103 | inactive: 0.118 | inactive: 0.058 |
| CLEC16A (UniProt Q2KHT3) | inactive: -0.008 | inactive: 0.003 | inactive: 0.152 | inactive: -0.008 | inactive: -0.046 | inactive: -0.044 | inactive: 0.023 | inactive: -0.06 | inactive: -0.142 |  |
| CLUH (UniProt O75153) | inactive: -0.014 | inactive: -0.057 | inactive: -0.012 | inactive: 0.147 | inactive: 0.004 | inactive: -0.005 | inactive: -0.007 | inactive: -0.044 | inactive: 0.032 |  |
| CHMP4A isoform 2 (UniProt Q9BY43) | inactive: 0.009 | inactive: -0.047 | active: -0.227 | inactive: -0.001 | inactive: 0.182 | inactive: -0.01 | inactive: 0.054 | inactive: -0.036 | inactive: 0.18 | inactive: 0.022 |
| CHRAC1 (UniProt Q9NRG0) | inactive: -0.029 | inactive: 0.019 | inactive: -0.027 | inactive: 0.045 | inactive: -0.025 | inactive: 0.03 | inactive: -0.046 | inactive: 0.035 | inactive: 0.032 | inactive: -0.022 |
| CLASP1 (UniProt Q7Z460) | inactive: 0 | inactive: -0.051 | inactive: -0.09 | inactive: -0.003 | inactive: 0.188 | inactive: 0.004 | inactive: 0.03 | inactive: -0.042 | inactive: 0.185 |  |
| CLDN12 (UniProt P56749) | inactive: -0.093 | inactive: -0.077 | inactive: 0.033 | inactive: -0.024 | inactive: -0.007 | inactive: -0.127 | inactive: -0.047 | inactive: -0.138 | inactive: -0.137 |  |
| CLCN2 (UniProt P51788) | inactive: 0.043 | inactive: -0.022 | inactive: -0.031 | inactive: -0.015 | inactive: 0.081 | inactive: -0.005 | inactive: 0.005 | inactive: 0.015 | inactive: -0.044 |  |
| CLK3 (UniProt P49761) | inactive: -0.006 | inactive: -0.132 |  | inactive: 0.083 |  | inactive: -0.016 | inactive: 0.195 |  |  |  |

Reformatted with bars between the fields: entries from further up
Target | log2 fold change [1] | log2 fold change [2] | log2 fold change [3] | log2 fold change [4] | log2 fold change [5] | log2 fold change [6] | log2 fold change [7] | log2 fold change [8] | log2 fold change [9] | log2 fold change [10]
CLP1 (UniProt Q92989) | inactive: -0.003 | inactive: -0.041 | inactive: -0.12 | inactive: -0.056 | inactive: 0.008 | inactive: 0.004 | inactive: 0.032 | inactive: 0.01 | inactive: 0.047 | 
CMC1 (UniProt Q7Z7K0) | inactive: -0.007 | inactive: 0.029 | inactive: 0.001 | inactive: 0.098 | inactive: -0.017 | inactive: 0.066 | inactive: 0.038 | inactive: 0.103 | inactive: 0.118 | inactive: 0.058
CLEC16A (UniProt Q2KHT3) | inactive: -0.008 | inactive: 0.003 | inactive: 0.152 | inactive: -0.008 | inactive: -0.046 | inactive: -0.044 | inactive: 0.023 | inactive: -0.06 | inactive: -0.142 | 
CLUH (UniProt O75153) | inactive: -0.014 | inactive: -0.057 | inactive: -0.012 | inactive: 0.147 | inactive: 0.004 | inactive: -0.005 | inactive: -0.007 | inactive: -0.044 | inactive: 0.032 | 
CHMP4A isoform 2 (UniProt Q9BY43) | inactive: 0.009 | inactive: -0.047 | active: -0.227 | inactive: -0.001 | inactive: 0.182 | inactive: -0.01 | inactive: 0.054 | inactive: -0.036 | inactive: 0.18 | inactive: 0.022
CHRAC1 (UniProt Q9NRG0) | inactive: -0.029 | inactive: 0.019 | inactive: -0.027 | inactive: 0.045 | inactive: -0.025 | inactive: 0.03 | inactive: -0.046 | inactive: 0.035 | inactive: 0.032 | inactive: -0.022
CLASP1 (UniProt Q7Z460) | inactive: 0 | inactive: -0.051 | inactive: -0.09 | inactive: -0.003 | inactive: 0.188 | inactive: 0.004 | inactive: 0.03 | inactive: -0.042 | inactive: 0.185 | 
CLDN12 (UniProt P56749) | inactive: -0.093 | inactive: -0.077 | inactive: 0.033 | inactive: -0.024 | inactive: -0.007 | inactive: -0.127 | inactive: -0.047 | inactive: -0.138 | inactive: -0.137 | 
CLCN2 (UniProt P51788) | inactive: 0.043 | inactive: -0.022 | inactive: -0.031 | inactive: -0.015 | inactive: 0.081 | inactive: -0.005 | inactive: 0.005 | inactive: 0.015 | inactive: -0.044 | 
CLK3 (UniProt P49761) | inactive: -0.006 | inactive: -0.132 |  | inactive: 0.083 |  | inactive: -0.016 | inactive: 0.195 |  |  | 

Further records

| Target | log2 fold change [1] | log2 fold change [2] | log2 fold change [3] | log2 fold change [4] | log2 fold change [5] | log2 fold change [6] | log2 fold change [7] | log2 fold change [8] | log2 fold change [9] | log2 fold change [10] |
| --- | --- | --- | --- | --- | --- | --- | --- | --- | --- | --- |
| CLPX (UniProt O76031) | inactive: 0.007 | inactive: -0.087 | inactive: 0.005 | inactive: 0.026 | inactive: -0.074 | inactive: -0.069 | inactive: 0.014 | inactive: -0.005 | inactive: -0.014 |  |
| CHTF18 (UniProt Q8WVB6) | inactive: 0 | inactive: -0.09 |  | inactive: 0.024 |  | inactive: -0.05 | inactive: 0.007 |  |  |  |
| CLPB isoform 2 (UniProt Q9H078) | inactive: -0.034 | inactive: -0.03 | inactive: 0.024 | inactive: -0.015 | inactive: -0.093 | inactive: 0.046 | inactive: -0.01 | inactive: -0.072 | inactive: 0.039 |  |
| CLIP2 (UniProt Q9UDT6) | inactive: -0.033 | inactive: -0.004 | inactive: 0 | inactive: 0.013 | inactive: 0.007 | inactive: 0.161 | inactive: 0.092 | inactive: 0.012 | inactive: 0.061 |  |
| CLTC (UniProt Q00610) | inactive: -0.021 | inactive: -0.052 | inactive: 0.053 | inactive: -0.013 | inactive: -0.083 | inactive: -0.015 | inactive: 0.044 | inactive: -0.026 | inactive: 0.026 |  |
| CLGN (UniProt O14967) | inactive: 0.005 | inactive: -0.031 | inactive: -0.088 | inactive: 0.028 | inactive: 0.052 | inactive: 0.041 | inactive: 0.006 | inactive: -0.009 | inactive: 0.05 |  |
| CLPP (UniProt Q16740) | inactive: 0.05 | inactive: 0.068 | inactive: 0.044 | inactive: -0.005 | inactive: -0.061 | inactive: 0.023 | inactive: 0.017 | inactive: 0.035 | inactive: -0.012 |  |
| CHFR (UniProt Q96EP1) | inactive: -0.062 | inactive: -0.051 |  | inactive: 0.023 |  | inactive: -0.063 | inactive: -0.012 |  |  |  |
| CLCC1 (UniProt Q96S66) | inactive: -0.024 | inactive: 0.058 | inactive: -0.072 | inactive: -0.021 | inactive: 0.063 | inactive: -0.016 | inactive: -0.022 | inactive: -0.033 | inactive: 0.037 |  |
| CLCN7 (UniProt P51798) | inactive: -0.02 | inactive: -0.078 | inactive: -0.065 | inactive: 0.009 | inactive: -0.014 | inactive: -0.01 | inactive: 0.057 | inactive: -0.063 | inactive: 0.092 |  |
| CLCN3 (UniProt P51790) | inactive: 0.004 | inactive: 0.014 | inactive: -0.09 | inactive: -0.017 | inactive: -0.106 | inactive: -0.008 | inactive: 0.033 | inactive: -0.004 | inactive: 0.13 |  |
| CLN8 (UniProt Q9UBY8) | inactive: 0.046 | inactive: 0.004 | inactive: -0.071 | inactive: 0.038 | inactive: 0.069 | inactive: -0.241 | inactive: -0.023 | inactive: 0.027 | inactive: 0.077 |  |
| CLUAP1 (UniProt Q96AJ1) | inactive: -0.094 | inactive: 0.039 | inactive: -0.268 | inactive: 0.103 | inactive: 0.098 | inactive: -0.041 | inactive: -0.096 |  | inactive: 0.025 |  |
| CLIP1 isoform 2 (UniProt P30622) | inactive: 0.066 | inactive: 0.018 | inactive: -0.103 | inactive: -0.053 | inactive: 0.135 | inactive: 0.047 | inactive: 0 | inactive: 0.031 | inactive: 0 |  |
| CKLF (UniProt Q9UBR5) | inactive: -0.515 | inactive: 0.064 | inactive: 0.081 | inactive: 0.017 | inactive: -0.09 |  | inactive: 0.019 |  | inactive: 0.087 |  |
| CLIC4 (UniProt Q9Y696) | inactive: -0.011 | inactive: -0.024 | inactive: -0.054 | inactive: 0.013 | inactive: 0.05 | inactive: -0.004 | inactive: -0.017 | inactive: -0.001 | inactive: 0.074 |  |
